# Measurements from patent US7153930B1, “Peptide transport” (priority 1999, dated 2006).
# Not every detail of the peptide structures is certain; ends, links or a residue may be inferred.
# Test system: gastric acid secretion
# Assay: Gastric acid secretion in anaesthetized rats after I.V., intra-ileal or jejunal administration of gastrin peptides (back titration of HCl)
smiles,measurement,setting,value
"CSCC[C@H](NC(=O)[C@H](Cc1c[nH]c2ccccc12)NC(=O)CC[C@@H](C)[C@H]1CC[C@H]2[C@@H]3[C@H](O)C[C@@H]4C[C@H](O)CC[C@]4(C)[C@H]3C[C@H](O)[C@]12C)C(=O)N[C@@H](CC(=O)O)C(=O)N[C@@H](Cc1ccccc1)C(N)=O [G4-CA, cholate-Trp-Met-Asp-Phe amide]",mean peak increase above baseline in total acidity,"first intravenous injection, 15 μg kg^−1, P=0.017",0.64±0.26 μmol 15 min^−1
same,mean increase in gastric acid secretion,"ileal administration, 600 μg kg^−1, over the 3 hr collection period, 17 rats, P=0.045",1.84 ± 1.49 µmol
same,effect on gastric acid secretion,ileal infusion 3 hr after jejunal infusion,strongly stimulated
same,effect on gastric acid secretion,infused into the jejunum,no increase in gastric acid secretion occurred
same,mean reduction in gastric acid levels,"infusion into the jejunum, 600 μg kg^−1 in 11.0 ml, 5 rats, P=0.018",0.70±0.41 μmol 180 min^−1
same,increase in gastric acid levels,"injected intra-ileally, 600 μg kg^−1, subsequent to jejunal infusion, P=0.001",1.63 ± 0.31 µmol
same,increase above baseline in total acidity,"second I.V. injection, 15 μg kg^−1, P=0.003",0.72±0.26 μmol 15 min^−1
